Measurements: article PMC5996148
Values joined by “and” are separate entries in the source; they are usually repeats but may differ in a detail not shown here. Identical values can stand only once. Some of the results follow. For some assays here: The source does not settle which construct or isoform was used.

Legend:
Test in all cases: protein microarray (ProtoArray v5.0), streptavidin-Alexa Fluor 647
Conditions in all cases: 3'-biotin; 20 mM Tris (pH 7.5), 5 mM MgCl2, 100 mM KCl, 0.1% Tween-20, A/T-rich and random oligonucleotide blockers; temperature not stated; high values mean tight binding
OSBPL9 (human) = system: OSBPL9 (human)
OSTF1 (human) = system: OSTF1 (human)
OSTbeta (human) = system: OSTbeta (human)
OTUB1 (human) = system: OTUB1 (human)
OTUB2 (human) = system: OTUB2 (human)
OTUD6B = molecular target: T1, OTUD6B (UniProt Q8N6M0)
T1 sequence: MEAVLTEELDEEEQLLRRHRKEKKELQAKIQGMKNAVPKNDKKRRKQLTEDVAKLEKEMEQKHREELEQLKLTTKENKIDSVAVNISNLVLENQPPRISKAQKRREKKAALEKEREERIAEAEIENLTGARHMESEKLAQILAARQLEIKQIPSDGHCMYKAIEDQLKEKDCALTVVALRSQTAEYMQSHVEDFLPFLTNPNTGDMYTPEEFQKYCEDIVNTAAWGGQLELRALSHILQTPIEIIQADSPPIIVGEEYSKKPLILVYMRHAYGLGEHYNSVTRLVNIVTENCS

[1] = system: Olfactomedin-like protein 2B (human)
[2] = system: Olfactory receptor 3A1 (human)
[3] = system: Olfactory receptor 56B4 (human)
Optineurin (human) = system: Optineurin (human)
[4] = system: Ornithine decarboxylase (human)
Osteocalcin (human) = system: Osteocalcin (human)
P2RX1 (human) = system: P2RX1 (human)
P2RXL1 (human) = system: P2RXL1 (human)
PADI3 (human) = system: PADI3 (human)
PAFAH1B2 (human) = system: PAFAH1B2 (human)
PAFAH1B3 (human) = system: PAFAH1B3 (human)
PAGE2 (human) = system: PAGE2 (human)
PAGE5 (human) = system: PAGE5 (human)
PAIP2 = molecular target: T2, PAIP2 (UniProt Q9BPZ3)
T2 sequence: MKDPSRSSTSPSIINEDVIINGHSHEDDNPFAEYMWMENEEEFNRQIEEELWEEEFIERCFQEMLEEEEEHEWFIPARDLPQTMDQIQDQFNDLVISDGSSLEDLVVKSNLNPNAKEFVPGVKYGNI

GGGAGGCTGAGGCAGG [G4-1 biotinylated (PQS2)]
binding signal (OSBPL9 (human)): -0.337 z-score
binding signal (OSTF1 (human)): -0.33 z-score
binding signal (OSTbeta (human)): -0.354 z-score
binding signal (OTUB1 (human)): -0.289 z-score and -0.351 z-score
binding signal (OTUB2 (human)): -0.346 z-score
binding signal (OTUD6B): 8.13 z-score
binding signal [1]: -0.303 z-score
binding signal [2]: -0.352 z-score
binding signal [3]: -0.31 z-score
binding signal (Optineurin (human)): -0.355 z-score
binding signal [4]: -0.353 z-score
binding signal (Osteocalcin (human)): -0.333 z-score
binding signal (P2RX1 (human)): -0.307 z-score
binding signal (P2RXL1 (human)): -0.31 z-score
binding signal (PADI3 (human)): -0.317 z-score
binding signal (PAFAH1B2 (human)): -0.367 z-score
binding signal (PAFAH1B3 (human)): -0.325 z-score
binding signal (PAGE2 (human)): -0.341 z-score
binding signal (PAGE5 (human)): -0.346 z-score
binding signal (PAIP2): -0.294 z-score
